Data as given in PubChem BioAssay AID1224828 (NIAID, 2016).
Assay: 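Find genes required for NF-kappaB p65 moving into the nucleus after LPS in mouse macrophages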 (primary screen). Cells: mouse RAW264.7 G9 macrophage reporter cells (GFP-p65, Tnf promoter-mCherry). Reagent: siRNA pool against mouse genes, 100 nM. Time to read-out: 2 days siRNA transfection, then 40 min LPS before fixation. Conditions: LPS (Salmonella minnesota R595) at 10 ng/ml. Measurement: 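Imaged p65 nuclear translocation ratio, normalised to the plate median, converted to robust z-scores and averaged across two replicates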. Reading the numbers: p65 translocation robust z-score: higher = more nuclear NF-kappaB p65 after LPS than the plate median; nuclear/cytoplasmic p65 ratio: higher = more nuclear NF-kappaB p65. Rule for the call: 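Called active when z exceeds 3.3 or falls under -1.56 (median of Tlr4 controls), giving activity score of at least 50; no calls for control wells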. Meaning of the calls: active = hit (p65 shift raised or lowered); inactive = no clear change.
Shown is an unselected part of about 17,000 deposited reagents. 762 of all reagents (4.5%) count as active. 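Active calls include both raised and lowered p65 entry, mostly lowered; wells with fewer than 50 cells lack a z-score.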 The raw values are shown without normalisation. Reagent sequences are not shown.

gene symbol,p65 translocation robust z-score,"nuclear/cytoplasmic p65 ratio, rep 1","nuclear/cytoplasmic p65 ratio, rep 2",low cell count flag,activity call
"Clec14a (C-type lectin domain family 14, member a)",0.62,1.51,1.5,enough cells to score,inactive
Enpp2 (ectonucleotide pyrophosphatase/phosphodiesterase 2),1.88,1.77,1.85,enough cells to score,inactive
"Prim1 (DNA primase, p49 subunit)",2.49,1.86,1.72,enough cells to score,inactive
Cic (capicua transcriptional repressor),-1.29,1.43,1.54,enough cells to score,inactive
Dhx32 (DEAH-box helicase 32 (putative)),-0.24,1.56,1.48,enough cells to score,inactive
Scamp5,-2.27,1.1,0.983,enough cells to score,active
Pcdha7 (protocadherin alpha 7),-0.38,1.33,1.2,enough cells to score,inactive
Rrh (retinal pigment epithelium derived rhodopsin homolog),-0.13,1.46,1.6,enough cells to score,inactive
A530013C23Rik (RIKEN cDNA A530013C23 gene),-1.51,1.22,1.32,enough cells to score,inactive
Prpsap2 (phosphoribosyl pyrophosphate synthetase-associated protein 2),,1.91,1.41,fewer than 50 cells per well; well left out of scoring,inactive
Inhba (inhibin beta-A),0.86,1.58,1.5,enough cells to score,inactive
Or6b2 (olfactory receptor family 6 subfamily B member 2),0.42,1.68,1.47,enough cells to score,inactive
Rgp1 (RAB6A GEF compex partner 1),1.37,1.59,1.77,enough cells to score,inactive
Wsb1 (WD repeat and SOCS box-containing 1),0.25,1.5,1.28,enough cells to score,inactive
Sstr4 (somatostatin receptor 4),0.22,1.54,1.31,enough cells to score,inactive
BC004004 (cDNA sequence BC004004),1.89,1.92,2.09,enough cells to score,inactive
Dexi (dexamethasone-induced transcript),0.55,1.71,1.57,enough cells to score,inactive
Vmn1r36 (vomeronasal 1 receptor 36),-0.54,1.42,1.17,enough cells to score,inactive
"Cyp2r1 (cytochrome P450, family 2, subfamily r, polypeptide 1)",0.43,1.58,1.92,enough cells to score,inactive
Vmn1r28 (vomeronasal 1 receptor 28),1.03,1.59,1.28,enough cells to score,inactive
Bco2 (beta-carotene oxygenase 2),1.75,1.68,1.77,enough cells to score,inactive
Homer3 (homer scaffolding protein 3),-1.18,1.49,1.35,enough cells to score,inactive
Hdgf (heparin binding growth factor),0.58,1.56,1.41,enough cells to score,inactive
Ly6f (lymphocyte antigen 6 family member F),0.29,1.73,1.61,enough cells to score,inactive
"Prl7d1 (prolactin family 7, subfamily d, member 1)",-0.78,1.25,1.15,enough cells to score,inactive
Zfp143 (zinc finger protein 143),-0.01,1.6,1.42,enough cells to score,inactive
Ark2n (arkadia (RNF111) N-terminal like PKA signaling regulator 2N),-0.33,1.46,1.42,enough cells to score,inactive
Kif16b (kinesin family member 16B),1.79,1.69,1.64,enough cells to score,inactive
"Sec62 (SEC62 homolog, preprotein translocation)",,0,1.03,fewer than 50 cells per well; well left out of scoring,inactive
Xpo4 (exportin 4),0.01,1.38,1.28,enough cells to score,inactive
Capn12 (calpain 12),0.43,1.62,1.89,enough cells to score,inactive
"Zdhhc17 (zinc finger, DHHC domain containing 17)",,1.41,1.58,fewer than 50 cells per well; well left out of scoring,inactive
Serbp1 (serpine1 mRNA binding protein 1),0.55,1.48,1.47,enough cells to score,inactive
Snrpg (small nuclear ribonucleoprotein polypeptide G),,1.55,1.16,fewer than 50 cells per well; well left out of scoring,inactive
Itgav (integrin alpha V),,1.33,1.28,fewer than 50 cells per well; well left out of scoring,inactive
Zfp385c (zinc finger protein 385C),,1.25,1.23,fewer than 50 cells per well; well left out of scoring,inactive
Khdrbs3,2.6,1.31,1.78,enough cells to score,inactive
A730089K16Rik (RIKEN cDNA A730089K16 gene),1.31,1.66,1.71,enough cells to score,inactive
Nufip1 (nuclear FMR1 interacting protein 1),-0.01,1.74,1.51,enough cells to score,inactive
"Pms2 (PMS1 homolog2, mismatch repair system component)",0.24,1.53,1.44,enough cells to score,inactive

An excerpt of the results above, as a working copy:
gene symbol,p65 translocation robust z-score,"nuclear/cytoplasmic p65 ratio, rep 1","nuclear/cytoplasmic p65 ratio, rep 2",low cell count flag,activity call
Ly6f (lymphocyte antigen 6 family member F),0.29,1.73,1.61,enough cells to score,inactive
"Prl7d1 (prolactin family 7, subfamily d, member 1)",-0.78,1.25,1.15,enough cells to score,inactive
Zfp143 (zinc finger protein 143),-0.01,1.6,1.42,enough cells to score,inactive
Ark2n (arkadia (RNF111) N-terminal like PKA signaling regulator 2N),-0.33,1.46,1.42,enough cells to score,inactive
Kif16b (kinesin family member 16B),1.79,1.69,1.64,enough cells to score,inactive
"Sec62 (SEC62 homolog, preprotein translocation)",,0,1.03,fewer than 50 cells per well; well left out of scoring,inactive
Xpo4 (exportin 4),0.01,1.38,1.28,enough cells to score,inactive
